{"source": "PubChem BioAssay AID220", "about": "(DTP/NCI, 2004)", "tested_on": "CD8F1 mice, subcutaneous mammary adenocarcinoma, T/C%", "experiment": "NCI In Vivo Anticancer Drug Screen. Data for tumor model Mammary Adenocarcinoma CD8F1 (subcutaneous) in CD8F1", "settings": "higher T/C = larger tumour", "method_in_brief": "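Tumor-bearing mice, transplantable model; readout survival or tumor size; value = treated (T) / vehicle control (C).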", "note": "The list does not hold the whole screen: it gathers tests that were run many times, whatever their T/C, doses with no T/C, and many T/C values between a quarter and a half above the control. Further doses and runs are listed elsewhere. T/C gives the treated animals as a percentage of the vehicle group. Schedules are NCI's codes, taken here to give the interval after Q, in days (D) or hours (H), and the number of doses after X. Some entries give survivors of the animals treated and no T/C: the source holds a T/C of zero for them, seemingly a mark for toxic or unscored doses. Counts of survivors are from the toxicity check (mostly the fifth day) where no day follows; animals may have died later."}
{"smiles": "CCC(C)C(=O)OC1C(=O)OC2CC3C(C)=CC(=O)C(O)C3(C)C3C4(O)OCC23C1C(C)C4O", "note": "(configuration not stated)", "values": [{"measurement": "survivor count", "setting": "T/C endpoint: median tumor weight (est.), dose: 2.0 mg/kg/injection, schedule: Q07DX005 (ip), vehicle: saline with Tween-80", "result": "6 of 10 on day 30"}, {"measurement": "survivor count", "setting": "T/C endpoint: median tumor weight (est.), dose: 8.0 mg/kg/injection, schedule: Q07DX005 (ip), vehicle: saline with Tween-80", "result": "1 of 10 on day 30"}, {"measurement": "survivor count", "setting": "T/C endpoint: median tumor weight (est.), dose: 8.0 mg/kg/injection, schedule: Q07DX005 (ip), vehicle: saline", "result": "4 of 10 on day 30"}, {"measurement": "survivor count", "setting": "T/C endpoint: median tumor weight (est.), dose: 16.0 mg/kg/injection, schedule: Q07DX005 (ip), vehicle: saline with Tween-80", "result": "0 of 10 on day 30"}]}
{"smiles": "NCCCNCCSP(=O)(O)O", "values": [{"measurement": "survivor count", "setting": "T/C endpoint: median tumor weight (est.), dose: 800.0 mg/kg/injection, schedule: Q07DX005 (ip), vehicle: saline with Tween-80", "result": "0 of 10 on day 30"}]}
{"smiles": "C/C(=N\\NC(=S)N1CCN(c2ccccn2)CC1)c1ccccn1", "values": [{"measurement": "T/C", "setting": "T/C endpoint: median tumor weight change, dose: 6.25 mg/kg/injection, schedule: Q01DX001 (ip), vehicle: other, evaluated on day 26", "result": "128 % of control"}, {"measurement": "survivor count", "setting": "T/C endpoint: median tumor weight change, dose: 100.0 mg/kg/injection, schedule: Q01DX001 (ip), vehicle: other", "result": "2 of 10 on day 26"}]}
{"smiles": "NC(N)=NOCC[C@@H](N)C(=O)O", "values": [{"measurement": "T/C", "setting": "T/C endpoint: median tumor weight change, dose: 125.0 mg/kg/injection, schedule: Q01DX001 (ip), vehicle: saline, evaluated on day 28", "result": "149 % of control"}, {"measurement": "survivor count", "setting": "T/C endpoint: median tumor weight change, dose: 2000.0 mg/kg/injection, schedule: Q01DX001 (ip), vehicle: saline", "result": "0 of 10 on day 28"}]}
{"smiles": "Oc1cc2ccccc2c(-c2c(O)c(O)cc3ccccc23)c1O", "values": [{"measurement": "T/C", "setting": "T/C endpoint: median tumor weight (est.), dose: 12.5 mg/kg/injection, schedule: Q07DX005 (ip), vehicle: saline with Tween-80, evaluated on day 30", "result": "138 % of control"}, {"measurement": "T/C", "setting": "T/C endpoint: median tumor weight (est.), dose: 50.0 mg/kg/injection, schedule: Q07DX005 (ip), vehicle: saline with Tween-80, evaluated on day 30", "result": "145 % of control"}]}
{"smiles": "N=C(N)SCc1cccc2c(=O)cc(-c3ccccc3)oc12", "values": [{"measurement": "survivor count", "setting": "T/C endpoint: median tumor weight change, dose: 2000.0 mg/kg/injection, schedule: Q01DX001 (ip), vehicle: suspension in saline", "result": "5 of 10 on day 38"}]}
